Values of other authors in patent US20220287943A1, “METHOD FOR TREATING KERATIN MATERIAL, COMPRISING THE APPLICATION OF AN ORGANIC C1-C6-ALKOXY-SILANE AND AN AMINO ACID AND/OR AMINO ACID DERIVATIVE” (Henkel AG & Co. KGaA, priority 2019, published 2022).

Settings: about 25° C.

Compound: CCN(Cc1cccc(S(=O)(=O)[O-])c1)c1ccc(C(=C2C=CC(=[N+](CC)Cc3cccc(S(=O)(=O)[O-])c3)C=C2)c2ccccc2S(=O)(=O)[O-])cc1.[Na+].[Na+] [Acid Blue 9]
- solubility in water: more than 20 % by weight
